# Data published in the supplement of paper PMC7877785.
# ± gives the uncertainty stated by the source. Many of these values have a large error.
# Experiment: self-splicing fitness, log relative to wild type (ln ratio); higher = more splicing; Tetrahymena group I intron in knt gene, E. coli kanamycin selection, DiMSum; sequences stand for … in CUCUCU…GGAGGGAAAAGUUAUCAGGCAUGCACCUGGUAGCUAGUCUUUAAACCAAUAGAUUGCAUCGGUUUAAAAGGCAAGACCGUCAAAUUGCGGGAAAGGGGUCAACAGCCGUUCAGUACCAAGUCUCAGGGGAAACUUUGAGAUGGCCUUGCAAAGGGUAUGGUAAUAAGCUGACGGACAUGGUCCUAACCACGCAGCCAAGUCCUAAGUCAACAGAUCUUCUGUUGAUAUGGAUGCAGUUCACAGACUAAAUGUCGGUCGGGGAAGAUGUAUUCUUCUCAUAAGAUAUAGUCGGACCUCUCCUUAAUGGGAGCUAGCGGAUGAAGUGAUGCAACACUGGAGCCGCUGGGAACUAAUUUGUAUGCGAAAGUAUAUUGAUUAGUUUUGGAGUACUCGUGGUCG
# Procedure, shortened: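 Colonies from six replicate transformations of E. coli BL21(DE3) were pooled and amplicon-sequenced on an Illumina HiSeq 2500. The library placed an intron with all eight P1ex-region nucleotides randomised inside the knt kanamycin-resistance gene on pET-22b(+), and cells grew overnight at 37°C or 30°C on LB agar with or without 25 μg/mL kanamycin (plus 100 μg/mL carbenicillin, 50 μM IPTG, 0.2% rhamnose). Fitness is the DiMSum error-weighted combination of wild-type-normalised replicate fold changes, kanamycin versus none.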
Sequence,self-splicing fitness (ln) (37 °C),self-splicing fitness (ln) (30 °C)
CUUUAGCAAUAUUACGCGAG,-3.68 ± 0.72,–
GACUAGCAAUAUUACGGCAC,0.581 ± 0.16,-0.648 ± 0.14
AGUGAGCAAUAUUACGAAUC,–,-4.12 ± 1
CGUCAGCAAUAUUACGAUCG,-1.61 ± 0.11,-1.74 ± 0.093
UUUGAGCAAUAUUACGCGAC,-1.97 ± 0.5,–
ACUAAGCAAUAUUACGCUAA,-1.92 ± 0.38,-3.83 ± 0.43
CUUCAGCAAUAUUACGUCAA,-3.44 ± 0.73,–
CUUGAGCAAUAUUACGGACA,-2.65 ± 0.54,–
CUUCAGCAAUAUUACGCUCG,-0.933 ± 0.26,-2.42 ± 0.15
CAGUAGCAAUAUUACGUUCU,–,-3.76 ± 0.52
GCGGAGCAAUAUUACGACGC,–,-4.41 ± 0.72
CGGAAGCAAUAUUACGGGUG,0.544 ± 0.086,-0.485 ± 0.09
ACGAAGCAAUAUUACGACAU,-0.109 ± 0.032,-0.681 ± 0.011
AUUCAGCAAUAUUACGAGAC,–,-4.61 ± 0.74
AUGUAGCAAUAUUACGACCG,-0.5 ± 0.17,-0.834 ± 0.12
UAUAAGCAAUAUUACGGCCC,–,-1.81 ± 0.78
CACUAGCAAUAUUACGAAAU,-1.38 ± 0.4,-4.02 ± 0.52
UGUAAGCAAUAUUACGGAGC,-2.2 ± 0.54,–
GGGCAGCAAUAUUACGCCUC,-1.42 ± 0.31,-3.87 ± 1
CCCAAGCAAUAUUACGCCCC,–,-3.96 ± 0.72
UUGUAGCAAUAUUACGCAGU,–,-4.43 ± 0.73
GGGUAGCAAUAUUACGUCUA,0.226 ± 0.16,-0.297 ± 0.15
GUUUAGCAAUAUUACGUCAG,-1.78 ± 1.2,-3.08 ± 0.76
GUGAAGCAAUAUUACGCAUC,–,-2.02 ± 0.87

Sequence,self-splicing fitness (ln) (37 °C),self-splicing fitness (ln) (30 °C)
GGGCAGCAAUAUUACGCAGC,-2.36 ± 0.63,-2.36 ± 1.2
AAUGAGCAAUAUUACGGUCC,-2.06 ± 0.58,–
AGAUAGCAAUAUUACGAAGG,-3.38 ± 0.74,–
UGAGAGCAAUAUUACGUAAC,-0.933 ± 0.51,–
GCGUAGCAAUAUUACGUCAA,–,-2.73 ± 0.53
AGUUAGCAAUAUUACGUCAC,–,-3.73 ± 0.6
AGAUAGCAAUAUUACGAGAA,-0.625 ± 0.65,-1.89 ± 0.54
UCAAAGCAAUAUUACGAAAA,–,-3.05 ± 0.64
CGAGAGCAAUAUUACGCAAU,-1.27 ± 0.56,–
UUUGAGCAAUAUUACGAUCC,-0.892 ± 0.57,-2.65 ± 1.1
UAAUAGCAAUAUUACGAAGC,–,-3.42 ± 1
CAUAAGCAAUAUUACGAACC,–,-4.43 ± 0.72
UGCCAGCAAUAUUACGCGAA,0.357 ± 0.11,-1.33 ± 0.11
CGGGAGCAAUAUUACGUGAU,–,-5.31 ± 1
GGGAAGCAAUAUUACGAGAA,-1.78 ± 0.36,-2.16 ± 0.48
GAUGAGCAAUAUUACGAACG,-0.683 ± 0.72,-0.828 ± 0.82
AGCCAGCAAUAUUACGGCCC,–,-2.02 ± 1.2
AAACAGCAAUAUUACGUGGA,-1.95 ± 0.1,-3.1 ± 0.14
ACCCAGCAAUAUUACGCCAU,-1.88 ± 0.16,-4.24 ± 0.23
UCCGAGCAAUAUUACGCGCU,-1.79 ± 1.2,–
UUAUAGCAAUAUUACGAGCG,-0.754 ± 0.29,-0.835 ± 0.28
CUUUAGCAAUAUUACGCGUG,-1.12 ± 0.17,-1.89 ± 0.14
GCUGAGCAAUAUUACGUCUC,–,-2.4 ± 0.67
AAAGAGCAAUAUUACGCAAU,-1.65 ± 0.16,-3.59 ± 0.21

Sequence,self-splicing fitness (ln) (37 °C),self-splicing fitness (ln) (30 °C)
GGGAAGCAAUAUUACGAAGG,-2.99 ± 0.6,-4.37 ± 1
GCCGAGCAAUAUUACGAUCG,-0.973 ± 0.57,–
CACGAGCAAUAUUACGUCCA,-2.48 ± 1.1,-3.49 ± 0.6
GACUAGCAAUAUUACGUAAG,-0.709 ± 0.11,-0.946 ± 0.087
ACUCAGCAAUAUUACGUUUA,-0.51 ± 0.086,-1.54 ± 0.078
GCAGAGCAAUAUUACGCUCU,-1.58 ± 0.54,–
AUUCAGCAAUAUUACGUGGA,-1.79 ± 0.12,-2.72 ± 0.18
UCAGAGCAAUAUUACGCCCU,–,-3.98 ± 0.73
ACUGAGCAAUAUUACGCGCC,0.000402 ± 1.2,–
GGUCAGCAAUAUUACGAAUG,-0.989 ± 0.1,-0.0371 ± 0.078
CUGUAGCAAUAUUACGCUCU,-3.26 ± 0.6,–
CUGGAGCAAUAUUACGCACA,-1.8 ± 0.66,-2.95 ± 0.75
GACGAGCAAUAUUACGAUAA,–,-4.47 ± 0.72
AGGGAGCAAUAUUACGCAGA,–,-1.77 ± 0.68
GCGGAGCAAUAUUACGCCCU,-1.81 ± 0.56,–
UGUAAGCAAUAUUACGCCGC,-1.09 ± 0.92,-2.61 ± 0.83
GUCUAGCAAUAUUACGGCGC,0.985 ± 0.12,-0.167 ± 0.1
CAUAAGCAAUAUUACGGAUG,-2.17 ± 0.15,-3.14 ± 0.14
CACGAGCAAUAUUACGCUAG,–,-3.27 ± 0.52
AUCCAGCAAUAUUACGUCGA,-0.557 ± 0.12,-0.897 ± 0.097
CGAGAGCAAUAUUACGUUGC,-2.5 ± 0.76,-3.19 ± 0.82
AUGGAGCAAUAUUACGGGCC,-1.54 ± 1.2,–
CGUAAGCAAUAUUACGACAA,–,-4 ± 0.51
UGCGAGCAAUAUUACGCGUC,-1.18 ± 0.92,–

# Six entries drawn at random from the list so far:
Sequence,self-splicing fitness (ln) (37 °C),self-splicing fitness (ln) (30 °C)
GCCGAGCAAUAUUACGAUCG,-0.973 ± 0.57,–
AGCCAGCAAUAUUACGGCCC,–,-2.02 ± 1.2
ACCCAGCAAUAUUACGCCAU,-1.88 ± 0.16,-4.24 ± 0.23
CUUGAGCAAUAUUACGGACA,-2.65 ± 0.54,–
GGGAAGCAAUAUUACGAAGG,-2.99 ± 0.6,-4.37 ± 1
UUGUAGCAAUAUUACGCAGU,–,-4.43 ± 0.73

# More results:

Sequence,self-splicing fitness (ln) (37 °C),self-splicing fitness (ln) (30 °C)
GUUUAGCAAUAUUACGCCAU,-1.9 ± 0.69,–
CAUUAGCAAUAUUACGUUCC,-1.9 ± 0.64,–
CGUGAGCAAUAUUACGCCCG,-0.307 ± 0.77,–
GGAGAGCAAUAUUACGACAA,–,-2.09 ± 1.4
GCGGAGCAAUAUUACGCAAC,-2.08 ± 0.79,–
UGAAAGCAAUAUUACGCAUU,-3.87 ± 0.59,–
CACGAGCAAUAUUACGAUUC,-2.49 ± 0.17,-3.44 ± 0.15
GUCGAGCAAUAUUACGAAAA,–,-3.31 ± 0.54
UCGGAGCAAUAUUACGCGAU,-2.42 ± 0.23,-3.51 ± 0.19
GCGGAGCAAUAUUACGCUUC,-1.34 ± 0.63,–
AUUAAGCAAUAUUACGUUGU,-2.8 ± 0.32,-1.98 ± 0.21
CAUGAGCAAUAUUACGAGCC,-1.8 ± 0.68,–
CCGUAGCAAUAUUACGAUUC,-1.81 ± 0.55,-4.4 ± 0.72
GAGAAGCAAUAUUACGCCCC,-2.61 ± 0.62,-3.51 ± 0.53
UGCUAGCAAUAUUACGAUCC,-0.932 ± 0.76,–
AGGUAGCAAUAUUACGUCUA,-0.259 ± 0.033,-0.666 ± 0.015
AUGGAGCAAUAUUACGCUCC,-1.78 ± 1.2,-4.17 ± 1.1
AAAGAGCAAUAUUACGAUCC,–,-4.58 ± 0.51
GGGCAGCAAUAUUACGUGCC,–,-1.82 ± 0.7
UAAGAGCAAUAUUACGGAGA,-1.26 ± 0.57,-1.92 ± 0.62
GCAUAGCAAUAUUACGCACC,-0.954 ± 0.61,–
GCGAAGCAAUAUUACGACUU,-0.741 ± 0.12,-1.4 ± 0.1
